Consider ten targets from the supplement of paper PMC12819154, “High-throughput peptide-centric local stability assay extends protein–ligand identification to membrane proteins, tissues and bacteria” (Nature Structural & Molecular Biology, 2025).

Protein sequences, listed by entry. Tags and fused reporters are not part of them. Lines headed by an entry give the natural chain unless they say otherwise; changes in a name come on top.
UniProt Q8IZQ5, whole entry: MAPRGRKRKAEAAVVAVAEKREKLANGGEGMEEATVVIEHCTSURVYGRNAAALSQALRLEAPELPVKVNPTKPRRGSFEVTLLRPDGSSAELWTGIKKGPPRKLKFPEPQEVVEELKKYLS
UniProt Q8IWY9: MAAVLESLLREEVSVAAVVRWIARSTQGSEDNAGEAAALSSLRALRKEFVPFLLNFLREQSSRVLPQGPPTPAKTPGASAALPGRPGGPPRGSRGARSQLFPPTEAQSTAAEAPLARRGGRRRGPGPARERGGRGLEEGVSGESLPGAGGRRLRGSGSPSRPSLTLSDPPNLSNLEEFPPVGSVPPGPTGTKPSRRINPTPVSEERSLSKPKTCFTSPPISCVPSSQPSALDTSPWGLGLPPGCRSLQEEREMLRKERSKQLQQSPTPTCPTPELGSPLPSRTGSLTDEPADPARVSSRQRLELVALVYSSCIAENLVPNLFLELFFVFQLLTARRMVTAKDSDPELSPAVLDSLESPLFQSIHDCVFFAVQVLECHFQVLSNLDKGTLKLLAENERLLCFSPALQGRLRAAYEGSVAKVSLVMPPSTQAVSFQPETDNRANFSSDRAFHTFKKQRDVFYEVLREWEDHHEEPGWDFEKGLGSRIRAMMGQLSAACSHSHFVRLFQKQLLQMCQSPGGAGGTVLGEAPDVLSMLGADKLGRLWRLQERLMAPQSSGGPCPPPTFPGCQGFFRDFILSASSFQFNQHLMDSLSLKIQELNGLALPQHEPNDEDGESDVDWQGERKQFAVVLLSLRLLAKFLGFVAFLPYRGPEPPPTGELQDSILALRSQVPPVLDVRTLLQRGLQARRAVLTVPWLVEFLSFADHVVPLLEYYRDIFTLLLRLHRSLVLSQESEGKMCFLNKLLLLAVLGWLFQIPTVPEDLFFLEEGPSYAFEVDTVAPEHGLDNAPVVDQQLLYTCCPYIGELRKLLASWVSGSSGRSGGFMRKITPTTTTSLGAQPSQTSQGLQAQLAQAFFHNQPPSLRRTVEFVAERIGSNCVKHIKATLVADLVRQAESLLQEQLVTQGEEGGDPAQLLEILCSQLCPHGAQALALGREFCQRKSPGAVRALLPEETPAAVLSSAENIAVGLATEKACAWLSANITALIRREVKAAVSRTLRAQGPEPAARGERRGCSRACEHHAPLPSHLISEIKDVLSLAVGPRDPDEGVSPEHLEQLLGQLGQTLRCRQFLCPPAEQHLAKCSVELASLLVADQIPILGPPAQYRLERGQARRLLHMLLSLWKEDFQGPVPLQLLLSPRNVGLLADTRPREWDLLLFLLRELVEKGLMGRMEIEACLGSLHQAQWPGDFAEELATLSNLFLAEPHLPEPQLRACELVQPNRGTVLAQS
UniProt Q8IV38: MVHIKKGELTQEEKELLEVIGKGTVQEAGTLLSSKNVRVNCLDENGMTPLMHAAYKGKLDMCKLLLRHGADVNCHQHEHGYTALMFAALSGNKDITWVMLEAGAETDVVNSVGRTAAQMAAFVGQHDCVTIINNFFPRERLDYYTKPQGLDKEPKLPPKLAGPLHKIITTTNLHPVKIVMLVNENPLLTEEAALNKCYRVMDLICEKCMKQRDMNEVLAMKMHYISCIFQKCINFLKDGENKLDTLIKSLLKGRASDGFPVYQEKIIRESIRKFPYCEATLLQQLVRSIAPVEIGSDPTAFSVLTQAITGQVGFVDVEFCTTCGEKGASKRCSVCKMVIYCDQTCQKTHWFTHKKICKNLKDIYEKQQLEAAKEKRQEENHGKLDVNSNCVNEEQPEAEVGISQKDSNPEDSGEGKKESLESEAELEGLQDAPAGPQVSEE
UniProt Q86WX3: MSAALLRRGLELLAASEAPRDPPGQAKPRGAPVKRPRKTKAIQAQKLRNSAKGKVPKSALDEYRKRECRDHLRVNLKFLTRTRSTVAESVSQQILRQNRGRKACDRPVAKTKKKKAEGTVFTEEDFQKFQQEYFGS
UniProt Q8IWE5: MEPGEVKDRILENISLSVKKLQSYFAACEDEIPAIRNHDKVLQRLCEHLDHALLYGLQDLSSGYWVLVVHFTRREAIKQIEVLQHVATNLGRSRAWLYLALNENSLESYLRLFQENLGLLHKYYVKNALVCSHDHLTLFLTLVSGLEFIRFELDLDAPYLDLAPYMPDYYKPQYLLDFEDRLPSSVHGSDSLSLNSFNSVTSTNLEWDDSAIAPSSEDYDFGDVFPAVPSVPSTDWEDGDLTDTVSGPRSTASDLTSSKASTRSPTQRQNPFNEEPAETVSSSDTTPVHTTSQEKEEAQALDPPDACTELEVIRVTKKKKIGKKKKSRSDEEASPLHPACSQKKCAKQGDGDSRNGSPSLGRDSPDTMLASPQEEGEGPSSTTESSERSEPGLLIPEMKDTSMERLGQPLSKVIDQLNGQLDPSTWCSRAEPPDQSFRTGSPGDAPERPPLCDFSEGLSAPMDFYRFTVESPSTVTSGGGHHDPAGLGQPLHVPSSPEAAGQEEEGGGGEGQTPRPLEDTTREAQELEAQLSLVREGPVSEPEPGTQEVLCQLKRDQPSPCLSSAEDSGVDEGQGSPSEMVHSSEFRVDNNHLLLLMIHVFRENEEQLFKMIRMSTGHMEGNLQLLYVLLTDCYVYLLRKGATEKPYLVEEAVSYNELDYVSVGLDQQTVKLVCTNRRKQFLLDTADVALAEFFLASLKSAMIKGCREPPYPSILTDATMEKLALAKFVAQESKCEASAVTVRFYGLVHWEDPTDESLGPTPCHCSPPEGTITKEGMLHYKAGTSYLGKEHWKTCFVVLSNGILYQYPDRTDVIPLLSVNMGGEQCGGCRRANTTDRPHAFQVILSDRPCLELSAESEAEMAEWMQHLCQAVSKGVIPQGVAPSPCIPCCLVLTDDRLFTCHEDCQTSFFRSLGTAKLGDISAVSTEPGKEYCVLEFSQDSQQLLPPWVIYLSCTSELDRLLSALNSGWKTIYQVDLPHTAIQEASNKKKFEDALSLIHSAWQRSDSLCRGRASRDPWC
UniProt Q86WW8: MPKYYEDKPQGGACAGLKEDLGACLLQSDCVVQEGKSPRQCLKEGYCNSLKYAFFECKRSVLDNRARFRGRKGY
UniProt Q8IWJ2: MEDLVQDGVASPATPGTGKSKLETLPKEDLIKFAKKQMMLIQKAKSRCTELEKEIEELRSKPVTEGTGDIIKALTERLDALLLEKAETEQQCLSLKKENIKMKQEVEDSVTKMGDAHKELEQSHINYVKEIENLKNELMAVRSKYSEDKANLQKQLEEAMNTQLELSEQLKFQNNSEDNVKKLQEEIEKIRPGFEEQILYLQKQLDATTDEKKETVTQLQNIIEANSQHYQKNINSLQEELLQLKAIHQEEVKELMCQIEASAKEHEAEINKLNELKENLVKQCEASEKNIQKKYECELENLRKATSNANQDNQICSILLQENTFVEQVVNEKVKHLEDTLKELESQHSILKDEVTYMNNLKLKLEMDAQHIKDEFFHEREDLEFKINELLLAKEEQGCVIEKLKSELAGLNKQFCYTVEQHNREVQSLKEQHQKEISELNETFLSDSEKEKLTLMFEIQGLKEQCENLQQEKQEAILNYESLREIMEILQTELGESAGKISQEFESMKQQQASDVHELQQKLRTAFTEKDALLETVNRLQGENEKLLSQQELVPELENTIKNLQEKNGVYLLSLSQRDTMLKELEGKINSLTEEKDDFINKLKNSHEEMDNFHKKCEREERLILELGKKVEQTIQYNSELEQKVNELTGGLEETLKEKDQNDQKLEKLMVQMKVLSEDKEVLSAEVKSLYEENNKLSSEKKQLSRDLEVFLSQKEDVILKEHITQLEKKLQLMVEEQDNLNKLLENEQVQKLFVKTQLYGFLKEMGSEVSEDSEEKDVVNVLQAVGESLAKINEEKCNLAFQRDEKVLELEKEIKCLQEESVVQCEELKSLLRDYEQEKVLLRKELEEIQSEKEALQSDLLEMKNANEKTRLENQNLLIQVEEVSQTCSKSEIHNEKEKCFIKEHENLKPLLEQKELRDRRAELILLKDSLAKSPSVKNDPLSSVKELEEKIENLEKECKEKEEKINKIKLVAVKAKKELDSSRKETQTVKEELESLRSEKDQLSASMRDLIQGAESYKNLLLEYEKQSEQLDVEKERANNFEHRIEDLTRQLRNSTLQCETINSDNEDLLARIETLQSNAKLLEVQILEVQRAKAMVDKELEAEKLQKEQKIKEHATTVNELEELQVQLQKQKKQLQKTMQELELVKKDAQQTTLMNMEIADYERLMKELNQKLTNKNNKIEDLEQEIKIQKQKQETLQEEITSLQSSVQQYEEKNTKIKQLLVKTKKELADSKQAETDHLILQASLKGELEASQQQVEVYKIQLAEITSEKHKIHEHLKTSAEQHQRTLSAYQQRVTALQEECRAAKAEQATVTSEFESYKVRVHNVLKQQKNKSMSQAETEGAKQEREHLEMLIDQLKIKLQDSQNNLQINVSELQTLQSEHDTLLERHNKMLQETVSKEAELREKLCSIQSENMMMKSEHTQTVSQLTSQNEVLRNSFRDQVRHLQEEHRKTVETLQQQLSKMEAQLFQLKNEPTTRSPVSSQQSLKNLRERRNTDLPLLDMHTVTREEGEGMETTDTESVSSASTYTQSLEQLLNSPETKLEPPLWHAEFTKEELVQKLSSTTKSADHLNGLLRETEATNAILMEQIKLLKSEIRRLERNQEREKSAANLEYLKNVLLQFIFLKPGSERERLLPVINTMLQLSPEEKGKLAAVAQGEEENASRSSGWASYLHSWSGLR
UniProt Q8N0T1: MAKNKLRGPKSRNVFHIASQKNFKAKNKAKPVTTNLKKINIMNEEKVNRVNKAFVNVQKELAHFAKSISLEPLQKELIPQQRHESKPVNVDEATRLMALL
UniProt Q86V48: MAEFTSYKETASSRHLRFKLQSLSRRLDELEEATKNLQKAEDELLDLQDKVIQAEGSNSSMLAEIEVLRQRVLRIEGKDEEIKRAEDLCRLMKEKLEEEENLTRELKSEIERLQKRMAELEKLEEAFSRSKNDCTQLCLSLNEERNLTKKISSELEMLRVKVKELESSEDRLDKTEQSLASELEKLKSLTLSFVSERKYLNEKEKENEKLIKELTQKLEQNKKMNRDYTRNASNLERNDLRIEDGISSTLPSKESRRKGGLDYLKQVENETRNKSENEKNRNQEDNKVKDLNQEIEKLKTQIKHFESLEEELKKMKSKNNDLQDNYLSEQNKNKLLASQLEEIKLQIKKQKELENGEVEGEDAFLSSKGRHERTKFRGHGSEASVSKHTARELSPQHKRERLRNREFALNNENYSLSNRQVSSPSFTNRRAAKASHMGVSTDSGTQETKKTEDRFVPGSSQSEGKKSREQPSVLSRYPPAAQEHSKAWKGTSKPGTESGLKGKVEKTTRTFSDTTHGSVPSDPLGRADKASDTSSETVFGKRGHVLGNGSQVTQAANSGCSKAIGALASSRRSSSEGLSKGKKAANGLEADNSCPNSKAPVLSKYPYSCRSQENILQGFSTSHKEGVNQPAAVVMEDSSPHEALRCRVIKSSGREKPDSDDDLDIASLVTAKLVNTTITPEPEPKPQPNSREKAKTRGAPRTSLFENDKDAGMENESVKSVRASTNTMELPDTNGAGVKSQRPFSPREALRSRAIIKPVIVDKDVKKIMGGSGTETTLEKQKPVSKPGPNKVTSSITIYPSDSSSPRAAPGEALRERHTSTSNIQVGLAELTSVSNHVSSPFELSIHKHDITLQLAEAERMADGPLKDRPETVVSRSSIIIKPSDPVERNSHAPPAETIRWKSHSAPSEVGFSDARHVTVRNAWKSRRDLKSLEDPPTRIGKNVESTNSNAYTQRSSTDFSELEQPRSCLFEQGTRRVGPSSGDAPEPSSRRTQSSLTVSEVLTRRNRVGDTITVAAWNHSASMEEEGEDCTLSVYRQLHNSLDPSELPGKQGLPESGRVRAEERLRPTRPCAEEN
UniProt Q8IX90, whole entry: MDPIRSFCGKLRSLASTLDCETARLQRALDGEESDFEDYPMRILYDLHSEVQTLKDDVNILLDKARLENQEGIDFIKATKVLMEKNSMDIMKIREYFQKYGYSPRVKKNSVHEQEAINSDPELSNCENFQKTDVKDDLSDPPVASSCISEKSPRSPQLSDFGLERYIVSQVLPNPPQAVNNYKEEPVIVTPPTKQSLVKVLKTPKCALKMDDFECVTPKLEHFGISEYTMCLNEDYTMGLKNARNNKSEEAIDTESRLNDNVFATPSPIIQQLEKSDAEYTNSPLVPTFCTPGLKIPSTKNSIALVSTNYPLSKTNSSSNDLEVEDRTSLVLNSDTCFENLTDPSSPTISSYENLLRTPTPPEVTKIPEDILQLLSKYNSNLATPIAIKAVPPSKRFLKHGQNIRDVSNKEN

The list shows a part of the results. Small differences around the control level are noise.

Compound in the assay: Cc1nc(Nc2ncc(C(=O)Nc3c(C)cccc3Cl)s2)cc(N2CCN(CCO)CC2)n1 [dasatinib]
As to the kind of experiment: log2 fold change of tryptic peptide abundance, ligand vs vehicle (limited proteolysis) (log2 ratio); higher = more trypsin-susceptible (destabilized). Particulars: ligand concentration: 5 uM; sample: K562 cleared lysate.
Regarding “UniProt Q8IZQ5 (peptide sequence: LKFPEPQEVVEELKK, peptide start residue: 105)”, the log2 fold change was 0.467.

On to “CDAN1 (peptide sequence: LLASWVSGSSGR, peptide start residue: 808) (UniProt Q8IWY9)”, for which the log2 fold change was 0.52.

In the case of “ANKMY2 (peptide sequence: MHYISCIFQK, peptide start residue: 222) (UniProt Q8IV38)”, the log2 fold change stood at 0.25.

For “RPS19BP1 (peptide sequence: GLELLAASEAPRDPPGQAK, peptide start residue: 9) (UniProt Q86WX3)”, the log2 fold change is -0.989.

Turning to “PLEKHM2 (peptide sequence: SRSDEEASPLHPACSQKK, peptide start residue: 327) (UniProt Q8IWE5)”, the log2 fold change turned out to be 0.421.

On to “COA5 (peptide sequence: YAFFECKR, peptide start residue: 52) (UniProt Q86WW8)”, for which the log2 fold change stood at 0.272.

Regarding “GCC2 (peptide sequence: YECELENLR, peptide start residue: 295) (UniProt Q8IWJ2)”, the log2 fold change was 0.361.

Regarding “UniProt Q8N0T1 (peptide sequence: KINIMNEEK, peptide start residue: 38)”, the log2 fold change is -0.44.

As for “LUZP1 (peptide sequence: RTQSSLTVSEVLTR, peptide start residue: 992) (UniProt Q86V48)”, the log2 fold change is 0.519.

Turning to “UniProt Q8IX90 (peptide sequence: EEPVIVTPPTK, peptide start residue: 184)”, the log2 fold change came to 0.342.
